We go through twelve molecules from patent US20230212304A1.

The chains behind the UniProt entries cited, without tags or fusion partners. Where a name states a change or a piece, a line headed by the entry shows the natural chain unless it says otherwise. A line that says so, or that is headed by a name, gives the form on record, which may keep a tag or linker.
cynomolgus monkey CTLA4-his protein (Acro biosystems, Cat#CT4-C5227) (G7PL88, form named): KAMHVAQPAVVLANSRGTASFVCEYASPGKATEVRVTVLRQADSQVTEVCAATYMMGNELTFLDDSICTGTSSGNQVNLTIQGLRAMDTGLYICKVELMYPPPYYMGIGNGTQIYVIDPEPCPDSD

Where a chain is given by its changes, count along the chain named. No constants are given. Whether binding was seen depends on the method and setting. Some entries that bind do so weakly or less than the wild type.

The target of assay [1] is cynomolgus monkey CTLA4-his protein (Acro biosystems, Cat#CT4-C5227) (cynomolgus monkey) (UniProt G7PL88). Kind of assay: SPR, Biacore T200. A general note: Surface plasmon resonance follows binding to a sensor surface in real time, without labels.
For assay [2] the target is unchanged. Kind of assay: SPR, Biacore.

B1: mouse anti-CTLA4 monoclonal antibody C1D1 (antibody, V domains shown)
VH: EVKLDETGGGLVQPGRPLKLSCVASGFTFSDNWMNWVRQSPEKGLEWVAQIRNKPYNYETYYSDSVKGRFTISRDDSKSSVYLQMNNLRVEDMGIYYCTGGMDYWGQGTSVTVSS
VL: DIQMTQSPASLSASVGETVTITCGASEIIYGALNWYQQKQGKSPQLLIYGATNLADGMSSRFSGSGSGRQYSLKISSLHPDDAATYYCQKILSPPPWTFGGGTKLEIK
Take B1: in assay [1], the binding result is reported as “binds”.

B2: mouse anti-CTLA4 monoclonal antibody C1G4 (antibody, V domains shown)
VH: B1 VH with L18I, V90T, E91K, M102F, D103T, S110L, S115A
VL: DIQMTQSPPSLSASVGETVTITCGASENIYGGLNWYQRKQGKSPQLLIYGATNLADGMSSRFSGSGSGRQYSLKISRLHPDDVATYYCQNVLNTPYTFGGGTKLEIK
Take B2: the binding result in assay [1] is reported as “binds”.

B3: mouse anti-CTLA4 monoclonal antibody D1A7 (antibody, V domains shown)
VH: QVTLKESGPGMLQPSQTLSLTCSFSGFSLSSSKLGVGWIRQPAGKGLEWLAHIWWNDDNYYVPSLKSRLTISKDTSNNQVFLKITNVDAADTATYYCVQVPYYTTQPWFAYWGQGTLVTVSA
VL: DIQMTQSPASLSASVGETVTITCRASGNIHNYLAWYLQNQGRSPQLLVYNTETLADGVSSRFSGSGSGTQYFLKISSLQPEDFGTYYCQHLWSTPWTFGGGTKLEIK
With B3, the binding entry in assay [1] is given as “binds”.

B4: mouse anti-CTLA4 monoclonal antibody D1B6 (antibody, V domains shown)
VH: EVQLQQSGPELVKPGASVKLSCKASGNTFTTYVLNWVKQKPGQGLEWIGYFNPYNDGIKYNEKFKGKATLTSDKSSNTAYMELSSLTSEDSAVYYCARFEGGGYAMDYWGQGTSVTVSS
VL: DIVLTQSPASLAVSLGQRATISCRASQSVGTSRNTYIHWYQQKLGQPPKLLIKYASDLESGVPARFSGSGSGTDFTLNIHPVEEEDTATYYCQHSWEIPYTFGGGTKLEIK
As for B4, the binding entry in assay [1] is recorded as “binds”.

B5: mouse anti-CTLA4 monoclonal antibody D1G6 (antibody, V domains shown)
VH: B4 VH with G57A, N77S
VL: B4 VL with R33S, N34Y, T35S, L44P
Take B5: the binding entry in assay [1] is given as “binds”.

B6: mouse anti-CTLA4 monoclonal antibody D2A4 (antibody, V domains shown)
VH: QVQLQQPGAELVKPGSSVNLSCKASGYTFTSYWVHWVKQGPGRGLEWIGRIDPNRGGTYYNENFKTKAALTVDSPSSTAYMHLSSLTSEDSAVYYCARGGLNYYALDYWGQGTSVTVSS
VL: DIQMTQSPASLFASLGETVTITCRASENIYSYLAWYQQKQGKSPQLLVYNANTLTEGVPSSFSGSGSGTQFSLKINTLQPEDFGTYYCQHHYGIPFTFGSGTKLEIK
For the molecule B6, the binding result in assay [1] is “binds”.

B7: mouse anti-CTLA4 monoclonal antibody D1H4 (antibody, V domains shown)
VH: EVQLQQSGPVLVKPGASVKMSCKASGYTFTDYYMNWVKQSHGKSLEWIGAINPDHGGSSYNQKFKGKATLTVDKSSSTAYMELNSLTSEDSAVYYCARDGSIHYVMDDWGQGTSVTVSS
VL: DIVMSQSPSSLTVSAGDKVTMSCKSSQSLLHSGNQKNYLAWYQQKPWQPPKLLIYGASTRESGVPDRFTGSGSGTDFTLTISSVQAEDLAVYYCQNDYGYPYTFGGGTKLEIK
With B7, the binding result in assay [1] was “binds”.

B8: mouse anti-CTLA4 monoclonal antibody D1H3 (antibody, V domains shown)
VH: QVQLQQPGAELVNPGASVKLSCKASGYTFTSYWLHWVKQRPGRGLEWIGRIDPNRGTIYYNEKFNNKATVTVDKPSNTAYMQLSRLTLEDSAVYYCARGGSNFYAMDYWGQGTSVTVSS
VL: DIQMTQSPASLSASVGETVTITCRTSENIYSYLAWYQQKQGESPQLLVYNAKTLAEGVPSRFSGSGSGTQFSLKINSLQPEDFGSYYCQNHDGIPFTFGSGTKLEIK
For B8, in assay [1], the binding entry is “binds”.

B9: huC1D1-V8 (antibody, human IgG4 S228P, kappa, V domains shown)
VH: EVQLVESGGGLVQPGRSLRLSCTASGFTFSDNWMNWVRQAPGKGLEWVGQIRNKPYNYETYYSDSVKGRFTISRDDSKSIAYLQMNSLKTEDTAVYYCTGGMDYWGQGTTVTVSS
VL: DIQMTQSPSSLSASVGDRVTITCGASEIIYGALNWYQQKPGKSPKLLIYGATNLADGVPSRFSGSGSGTDFTLTISSLQPEDVATYYCQKILSPPPWTFGGGTKVEIKR
Regarding B9, the binding result in assay [2] is on record as “binds”.

B10: mouse anti-CTLA4 monoclonal antibody D1D5 (antibody, V domains shown)
VH: EVKLVESGGGLVKPGGSLKLSCAASGFTFSDYGMAWVRQAPGKGPEWVAFISNLAYSVYYADTETGRFTISREDAKNTLYLEMSSLRSEDTAMYYCARSGLPYAMDYWGQGTSVTVSS
VL: DIQMTQTTSSLSASLGDRVTISCRASQDISNYLNWYQQKPDGTVKLLIYYISRLHSGVPSRFSGSGSGTDFSLTISNLEQEDIATYFCQQGRMLPWTFGGGTRLEIK
As for B10, in assay [1], the binding entry was “binds”.

B11: huD1D5-V9 (antibody, human IgG4 S228P, kappa, V domains shown)
VH: B10 VH with K3Q, K19R, E73D, T78S, E82Q, S84N, S88A, M93V, S113T
VL: DIQMTQSPSSLSASVGDRVTITCRASQDISNYLNWYQQKPGKVPKLLIYYISRLHSGVPSRFSGSGSGTDFTLTISSLQPEDVATYYCQQGRMLPWTFGGGTKVEIKR
For B11, the binding result in assay [2] was “binds”.

B12: mouse anti-CTLA4 monoclonal antibody D1B8 (antibody, V domains shown)
VH: QIQLQQSGPELVKPGASVKISCKASGYTFTDYYINWVKQRPGQGLEWIGWIYPGNNNTRYNEKFKGKATLTIDTSSSTAFMHLSSLTSEDSAVYFCARYYFDYWGQGTTLTVSS
VL: DIQMTQSPSSLSASLGERISLTCRASQEITGYLSWLQQKPDGTIKRLIYAASTLDSGVPQRFSGSRSGSDYSLTISSLESEDFADYYCLQYASYPRTFGGGTKLEIK
As for B12, in assay [1], the binding result is listed as “binds”.
